## Percent effect of library compounds

A: 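Whole-cell growth test on Mycobacterium tuberculosis, read after 4 days in a medium based on cholesterol and the lipid DPPC; the read-out is not stated. Tested at 50 µM. Direction is inferred from retests: higher values go with more growth inhibition. Size under these conditions: about 69,000 compounds, about 370 of them at 50% or above in at least one test.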
B: 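Phenotypic screen: M. tuberculosis growth, glucose 7H9 medium, 3 days; the read-out is not stated. Compounds at 50 µM. Direction is inferred from retests: higher values go with more growth inhibition. Size under these conditions: about 69,000 compounds, about 760 of them at 50% or above in at least one test.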

Results are given as percent effect. How 0% and 100% were set is not recorded. Most values in the screen are low, and negative values occur. This is an unselected part of the compounds tested. Two or more numbers in one place are separate tests of the same structure; such repeats can differ widely.

CC(C)CSc1ccc(-n2cccn2)nn1 gave A: 10.9%; B: -13.59%. Result for N#Cc1cccnc1N1CCN(C(=O)c2cccs2)CC1 was A: 8.234%; B: 17.58%. Result for Cc1ccc(-c2nn(-c3cccc(F)c3)cc2CN(CCO)CCO)o1 was A: 6.679%; B: 23.41% & 20.19%. With CCOC(=O)CN1C(=O)CN(S(C)(=O)=O)CCC(OC)c2ccccc21 (stereo not given) the screen gave A: -5.579%; B: 16.76%.

CN1CCC(N(C)C(=O)CSc2ccc(F)c(F)c2)C1=O (stereo not given) gave A: 13.47%; B: 13.23%. Cc1ncncc1C(=O)NCCN1CCC(C)CC1 read A: 3.056%; B: 28%. Result for COc1ccccc1CC1CCCN(C(=O)c2cn[nH]c2C)C1 (stereo not given) was A: 1.066%; B: 1.138%. O=C(O)C(F)(F)F.O=C(O)C(F)(F)F.O=C(O)C(F)(F)F.[H][C@@]12OCCN(Cc3ccncc3)[C@@]1([H])CC[C@H]2OCCN1CCCC1 read A: -10.5%; B: -4.571%.

CC1CCCN(S(=O)(=O)NCCCn2ccc3ccccc32)C1 (stereo not given) read A: 2.292%; B: 12.81% & 14.82%. Cc1nc(CN2CCCC(Nc3ncnc4ccsc34)C2)no1 (stereo not given) read A: 2.574%; B: 0.4804%. Cc1cnn(CC2CN(CC(=O)Nc3sccc3C#N)CCO2)c1 (stereo not given) gave A: -8.554%; B: 4.972%. CCOC(C)C(=O)Nc1ccc2c(ccn2CC)c1 (stereo not given) read A: 8.826%; B: 26.46%.

With O=C1CC(N(C(=O)COc2ccc(F)cc2F)C2CC2)C(=O)N1 (stereo not given) the screen gave A: -12.15%; B: 5.8%. For O=C(CC(SC1CCCCC1)C(=O)O)c1ccc(Br)cc1 (stereo not given) the result was A: -3.94%; B: 16.71% & -11.52%. Result for Cc1ccc(CC(=O)N2CCCC(c3n[nH]c4nccnc34)C2)cc1 (stereo not given) was A: 13.28%; B: 0.3207%. CC(NC(=O)NCCCOc1ccccc1F)c1nncn1C (stereo not given) read A: 10.46%; B: 11.15%.

For Cc1noc(C)c1C(C)NC(=O)N1CCN(c2cccs2)CC1 (stereo not given) the result was A: -12.31%; B: -0.8889% & -12.55%. With CCOCc1cnc2n1CCN(C(=O)c1cccc3c1OCCO3)C2C (stereo not given) the screen gave A: -22.96%; B: 16.66%. With C[C@@H]1C[C@H](C(F)(F)F)n2nc(C3CCN(S(C)(=O)=O)CC3)cc2N1 the screen gave A: -17.55%; B: 12.1%. With O=C(O)Cn1ccc(=O)c2cc(Cl)ccc21 the screen gave A: -20.65%; B: 7.55%.

COc1cccc(CN(C)CC2=Nc3ccccc3S(=O)(=O)N2)c1 gave A: 22.39%; B: 25.19%. Result for O=C(Cc1ccc2c(c1)CCCC2)NCCNc1cnccn1 was A: -2.415%; B: 26.94%. COc1cc2c(nn1)CCN(Cc1ncc(C(C)(C)C)o1)C2 read A: -8.743%; B: -24.11%. COCCCNc1nc(CNC(=O)C2CCC2)cc(-c2ccco2)n1 read A: 5.67%; B: 23.81%.

Result for CC(C#N)CSc1ccccc1NCC(=O)NCc1cccs1 (stereo not given) was A: -3.283%; B: 4.568% & 2.586%. With Cc1ccc2c(n1)N(CCN(C)C)CCN(C(=O)c1ccc[nH]1)C2.O=C(O)C(F)(F)F.O=C(O)C(F)(F)F the screen gave A: -16.77%; B: -14.6%. COc1cc(N2C[C@@H](C)[C@](O)(C3CC3)C2)ncn1 read A: -37.66%; B: -25.03%. With CC(C)Cc1ncc2c(n1)CN(c1nccc(NC(C)C)n1)C2 the screen gave A: 21.33%; B: 62.84%.

For [H][C@@]12CN(C(=O)c3ccccn3)C[C@]1([H])OCC(=O)N2CC1CCCCC1 the result was A: 3.158%; B: -8.871% & 12.64%. Result for CC(C)CCN(CCC(C)C)Cc1nc2c(cnn2C)c(=O)[nH]1 was A: -6.058%; B: -12.66%. For CN1C(=O)CO[C@H](c2ccc(NC(=O)Cc3cccs3)cc2)[C@H]1CO the result was A: -22.22%; B: -7.751% & -18.96%. With Cc1cc(C(=O)N(C)Cc2ccccc2OCC(C)C)cc(=O)[nH]1 the screen gave A: -26.17%; B: 6.297%.

O=C(O)C(F)(F)F.[H][C@]12CCC[C@@]1(COc1ccccn1)CN(C(=O)CN(C)C)C2 read A: -21.89%; B: -17.91%. Result for O=S(=O)(c1ccc(F)cc1)N1CCCC1c1cc[nH]n1 (stereo not given) was A: 8.323%; B: 11.24%. For CN(C)C(=O)C1CCN(C2CCN(CC3CC3)CC2)CC1.O=C(O)C(F)(F)F.O=C(O)C(F)(F)F the result was A: 18.74%; B: 16.29%. With O=C(NCC1CC1)C1CSCN1S(=O)(=O)c1cc(F)cc(F)c1 (stereo not given) the screen gave A: 9.94%; B: 7.482%.

For reference, 5 entries once more:

Result for CC(NC(=O)NCCCOc1ccccc1F)c1nncn1C (stereo not given) was A: 10.46%; B: 11.15%.
Result for CC1CCCN(S(=O)(=O)NCCCn2ccc3ccccc32)C1 (stereo not given) was A: 2.292%; B: 12.81% & 14.82%.
Result for CC(C)CCN(CCC(C)C)Cc1nc2c(cnn2C)c(=O)[nH]1 was A: -6.058%; B: -12.66%.
Result for Cc1ncncc1C(=O)NCCN1CCC(C)CC1 was A: 3.056%; B: 28%.
Result for CCOC(C)C(=O)Nc1ccc2c(ccn2CC)c1 (stereo not given) was A: 8.826%; B: 26.46%.

Data taken from ChEMBL document CHEMBL3988442, “University of Dundee, Small-Polar-MMV Screening Library” (2021).